The values that follow come from patent US20240252583A1, “Compositions and Methods for Treating Persistent Postsurgical Pain” (priority 2021, published 2024).

The assay relates to post-incisional mechanical allodynia. The note with it: rat, in vivo. The text has this: Data are expressed as mean±standard error of the mean (S.E.M.), and p<0.05 was accepted as statistically significant.

For the compound `CN1CC[C@]23c4c5ccc(O)c4O[C@H]2[C@@H](O)C=C[C@H]3[C@H]1C5` [morphine], the EC50 of morphine was determined as 3.19 mg/kg.
